The list is a part of this screen's results and no random one: it gathers some chemical classes. Other doses and runs of a compound may be missing. T/C: endpoint of the treated group in % of that of the vehicle group. Some doses have a count of surviving animals in place of a T/C: the source files T/C as zero there, which appears to mark a toxic dose or a test without result, not a measured value. Some doses without a T/C left all or most animals alive at the check, yet need not have been tolerated: the source hardly ever lists a survival T/C far under the control, and the zero likely stands for such cases as well. Survivors were counted at the toxicity check, usually on the fifth day, unless a day is given; later deaths do not show. Schedule codes are those of the source, read here as Q, the interval in days (D) or hours (H), X, the number of doses. Some schedule codes hold Z or #, which are not explained here. For survival time, this PubChem deposit counts one and a half times the control or more as active, and values a quarter to a half above the control carry no call in these data; other NCI protocols may use other cut-offs. Some T/C values are followed by the survivors on the day toxicity was checked, most often the fifth; without a count or a note in brackets, all were alive then.
Tested on: L1210 leukemia ip in BDF1 mice, survival T/C
Experiment: NCI In Vivo Anticancer Drug Screen. Data for tumor model L1210 Leukemia (intraperitoneal) in B6D2F1 (BDF1) mice
Conditions: T/C endpoint: mean survival time, higher T/C = longer survival
[1] = dose: 25.0 mg/kg/injection, schedule: Q04DX003 (ip), vehicle: saline
[2] = dose: 50.0 mg/kg/injection, schedule: Q04DX003 (ip), vehicle: saline
[3] = dose: 100.0 mg/kg/injection, schedule: Q04DX003 (ip), vehicle: saline
[4] = dose: 100.0 mg/kg/injection, schedule: Q01DX001 (ip), vehicle: DMSO

SMILES: CCN(CCCl)Cc1cccc2ccccc12
- T/C [1]: 95 % of control
- T/C [2]: 89 % of control
- T/C [3]: 122 % of control [2 of 3 alive]
- survivor count [3]: 0 of 3
- survivor count (dose: 200.0 mg/kg/injection, schedule: Q04DX003 (ip), vehicle: saline): 0 of 3
- survivor count (dose: 400.0 mg/kg/injection, schedule: Q04DX003 (ip), vehicle: saline): 0 of 3

SMILES: CCN(CC)CCOC(=O)C(O)(c1cccc(C)c1C)C1CCCCC1 (configuration not stated)
- T/C (dose: 75.0 mg/kg/injection, schedule: Q01DX001 (ip), vehicle: other): 100 % of control

SMILES: O=P(Cl)(NCCCl)N(CCCl)CCCl (configuration not stated)
- T/C (dose: 25.0 mg/kg/injection, schedule: Q01DX001 (ip), vehicle: DMSO): 134 % of control
- T/C (dose: 50.0 mg/kg/injection, schedule: Q01DX001 (ip), vehicle: DMSO): 123 % of control
- T/C [4]: 95 % of control [4 of 6 alive]
- survivor count [4]: 4 of 6
- survivor count (dose: 200.0 mg/kg/injection, schedule: Q01DX001 (ip), vehicle: DMSO): 0 of 6
- survivor count (dose: 400.0 mg/kg/injection, schedule: Q01DX001 (ip), vehicle: DMSO): 0 of 6

SMILES: CCOP(=O)(NC(=S)N1CC1)NC(=S)N1CC1
- T/C (dose: 100.0 mg/kg/injection, schedule: Q01DX001 (ip), vehicle: carboxymethylcellulose (CMC)): 96 % of control
- survivor count (dose: 200.0 mg/kg/injection, schedule: Q01DX001 (ip), vehicle: carboxymethylcellulose (CMC)): 0 of 6
- survivor count (dose: 400.0 mg/kg/injection, schedule: Q01DX001 (ip), vehicle: carboxymethylcellulose (CMC)): 0 of 6

SMILES: CCN(CC)P1OCCO1
- T/C (dose: 100.0 mg/kg/injection, schedule: Q04DX003 (ip), vehicle: saline with Tween-80): 96 % of control
- T/C (dose: 200.0 mg/kg/injection, schedule: Q04DX003 (ip), vehicle: saline with Tween-80): 97 % of control
- T/C (dose: 400.0 mg/kg/injection, schedule: Q04DX003 (ip), vehicle: saline with Tween-80): 100 % of control

SMILES: O=C(Cc1ccccc1)OC1CN2CCC1CC2 (configuration not stated)
- T/C (dose: 25.0 mg/kg/injection, schedule: Q04DX002 (ip), vehicle: saline): 97 % of control
- T/C (dose: 50.0 mg/kg/injection, schedule: Q04DX002 (ip), vehicle: saline): 97 % of control
- survivor count (dose: 100.0 mg/kg/injection, schedule: Q04DX002 (ip), vehicle: saline): 1 of 3

SMILES: OC(SCc1c(Cl)c(Cl)c(Cl)c(Cl)c1Cl)C(Cl)(Cl)Cl (configuration not stated)
- T/C (dose: 75.0 mg/kg/injection, schedule: Q01DX009 (ip), vehicle: saline with Tween-80): 91 % of control
- T/C (dose: 150.0 mg/kg/injection, schedule: Q01DX009 (ip), vehicle: saline with Tween-80): 98 % of control [5 of 6 alive]
- survivor count (dose: 300.0 mg/kg/injection, schedule: Q01DX009 (ip), vehicle: saline with Tween-80): 2 of 6

SMILES: CCN(CC)CCOC(=O)C(O)(c1ccccc1OC)c1ccccc1OC
- T/C (dose: 75.0 mg/kg/injection, schedule: Q01DX001 (ip), vehicle: saline): 98 % of control

SMILES: O=P(OCCCl)(N(CCCl)CCCl)N1CC1 (configuration not stated)
- T/C (dose: 4.0 mg/kg/injection, schedule: Q01DX Z (ip), vehicle: saline): 97 % of control
- T/C (dose: 8.0 mg/kg/injection, schedule: Q01DX Z (ip), vehicle: saline): 124 % of control
- T/C (dose: 16.0 mg/kg/injection, schedule: Q01DX Z (ip), vehicle: saline): 93 % of control
- T/C [1]: 100 % of control
- survivor count (dose: 32.0 mg/kg/injection, schedule: Q01DX Z (ip), vehicle: saline): 6 of 6
- T/C [2]: 98 % of control
- survivor count (dose: 62.5 mg/kg/injection, schedule: Q01DX010 (ip), vehicle: saline): 6 of 6
- survivor count (dose: 64.0 mg/kg/injection, schedule: Q01DX Z (ip), vehicle: saline): 0 of 6
- T/C [3]: 93 % of control
- survivor count (dose: 125.0 mg/kg/injection, schedule: Q01DX010 (ip), vehicle: saline): 1 of 6
- survivor count (dose: 250.0 mg/kg/injection, schedule: Q01DX010 (ip), vehicle: saline): 0 of 6
